Experimental data taken from PubChem BioAssay AID540256 (National Center for Advancing Translational Sciences (NCATS), 2011).
In all, about 300,000 compounds went through this assay and about 3,700 (1.2%) were called active. Inconclusive means that the source gave no clear call. Such entries were picked first, then a sample of the others. The call rests on the fitted dose curve; tested in HEK293 cells. Potencies of inconclusive entries are doubtful fits and often do not repeat.
On the % scale 0 is the no-effect control and ±100 the full control effect; potency means the concentration at half of the fitted maximal effect.

Test: qHTS for Inhibitors of binding or entry into cells for Lassa Virus; further: nearly all actives have a fitted effect of over 50% in size
Conditions: Lassa virus pseudotype entry inhibition, cell reporter; activity change, negative = inhibition: at 37.9 µM (top of the series) unless noted
With `O=C(NCc1ccccc1)c1ccc(Cl)cc1[N+](=O)[O-]` the “activity change, negative = inhibition” value was inactive: -0.373%.
In the case of `Cc1coc2c1c(C)cc1oc(=O)cc(C)c12`, the “activity change, negative = inhibition” value is reported as inactive: 18.8% [at 46.1 µM].
In the case of `O=C(c1cc(COc2ccc(F)cc2F)on1)N1CCN(C(=O)c2ccco2)CC1`, the Potency is reported as inconclusive: 8.91 µM [inhibitor, partial curve, poor fit].
With `COc1ccc(CNn2cnnc2)c(O)c1` the Potency was inconclusive: 3.16 µM [activator, full curve, poor fit].
In the case of `O=C(NCCc1c[nH]c2ccccc12)C(=O)NCC(c1ccco1)N1CCN(c2ccc(F)cc2)CC1` (stereo not drawn), the Potency is reported as inconclusive: 5.01 µM [inhibitor, partial curve, poor fit].
With `Cc1c(NC(=O)c2ccc(-c3ccc([N+](=O)[O-])cc3Cl)o2)c(=O)n(-c2ccccc2)n1C` the “activity change, negative = inhibition” value was inactive: 14.7% [at 46.1 µM].
For `COc1cccc(C(=O)C2CCCN(C(=O)CCc3scnc3C)C2)c1` (stereo not drawn), the Potency was inconclusive: 28.2 µM [inhibitor, partial curve, poor fit].
In the case of `CCOC(=O)c1ccc(NC(=O)N2CCCCCC2)cc1`, the Potency is reported as inconclusive: 35.5 µM [inhibitor, single point].
For `c1ccc(-c2c[nH]c(-c3ccccc3)c2)cc1`, the Potency was inconclusive: 6.31 µM [activator, single point].
With `Cc1c(Cl)cccc1NC(CC(=O)c1ccccc1)C(=O)O` (stereo not drawn) the Potency was inconclusive: 14.6 µM [activator, partial curve].
For `Oc1c(Cl)cc(Cl)cc1CNc1ccc(Br)cn1`, the Potency was inconclusive: 35.5 µM [inhibitor, single point].
With `CN(C)CCCN(C(=O)c1ccc2c(c1)CCCC2)c1nc2c(F)cccc2s1` the Potency was inconclusive: 12.6 µM [inhibitor, partial curve, poor fit].
With `S=C(NC1CCCCC1)N(CCc1nc2ccccc2[nH]1)C1CCCC1` the Potency was inconclusive: 29.1 µM [inhibitor, single point].
In the case of `O=C(Nc1ccccc1C(=O)O)c1ccc(NC(=O)C2CC2)cc1`, the Potency is reported as inconclusive: 17.8 µM [inhibitor, partial curve, poor fit].
With `Cc1ccc(N=c2c([N+](=O)[O-])nn(-c3ccc(Cl)cc3)n2O)cc1C` the “activity change, negative = inhibition” value was inactive: 15.6%.
For `CC(=O)OC1C2(CC3N4C(=O)C5(CO)SSC4(CC31O)C(=O)N5C)OC(C)C(C)(C)C2=O` (stereo not drawn), the Potency was active: 1.58 µM.
In the case of `C=CCc1cccc2cc(C(=O)Nc3cccc(Cl)c3)c(=O)oc12`, the Potency is reported as inconclusive: 3.16 µM [activator, single point].
For `C(=Nc1ccc(Nc2ccccc2)cc1)c1ccc2ccccc2c1`, the Potency was inconclusive: 11.2 µM [inhibitor, partial curve].
For `O=C(Nc1c(-c2ccccc2)nc2ccc(Cl)cn12)c1cccs1`, the Potency was inconclusive: 17.8 µM [activator, partial curve, poor fit].
For `COc1cc(/C=C(\C#N)C(=O)Nc2cccc(C(=O)O)c2)ccc1OCc1ccc(C)cc1`, the Potency was inconclusive: 10 µM [inhibitor, single point].
With `Cc1cc(C(=O)Nc2ccc(Cl)cc2)c(C)n1Cc1cccs1` the Potency was inconclusive: 10 µM [inhibitor, partial curve].
For `CSCCC(NS(=O)(=O)c1cccc(C(F)(F)F)c1)C(=O)Nc1ccccc1N1CCCC1` (stereo not drawn), the Potency was inconclusive: 11.2 µM [inhibitor, partial curve].
For `CC(C)CC1NC(=O)N(CC(=O)c2ccc3c(c2)OCCO3)C1=O` (stereo not drawn), the “activity change, negative = inhibition” value was inactive: -0.0181%.
In the case of `O=C(COc1ccc(Cl)cc1Cl)NC1CCSC1=O` (stereo not drawn), the “activity change, negative = inhibition” value is reported as inactive: -19.3%.
For `CN(NC(=S)Nc1ccc(OC(F)F)cc1)C(=S)Nc1ccc(OC(F)F)cc1`, the Potency was inconclusive: 1.78 µM [inhibitor, full curve, poor fit].
For `Cc1nn(-c2ccccc2)c2c1C(c1cccc([N+](=O)[O-])c1)N(c1ccccc1)C(=O)N2` (stereo not drawn), the Potency was inconclusive: 5.62 µM [inhibitor, partial curve, poor fit].
For `COc1ccc(Nc2ncc(C(=O)N3CCN(Cc4ccccc4)CC3)c3ccccc23)cc1`, the Potency was inconclusive: 23.1 µM [inhibitor, single point].
With `CCCCn1cc(C(=O)c2cc(Br)ccc2O)cc(C#N)c1=O` the Potency was inconclusive: 5.01 µM [inhibitor, partial curve].
For `COc1ccc(C)cc1NC(=O)CN(c1cc(C(F)(F)F)ccc1Cl)S(C)(=O)=O`, the “activity change, negative = inhibition” value was inactive: -7.84% [at 46.1 µM].
In the case of `Cc1nnc(C)n1/N=C/c1ccc(C(=O)O)cc1`, the Potency is reported as inconclusive: 3.66 µM [activator, full curve, poor fit].
In the case of `CC(=O)Nc1ccc(C(=O)N/N=C/c2ccccc2OCc2ccccc2)cc1`, the Potency is reported as inconclusive: 22.4 µM [inhibitor, single point].
With `CCN(CC)c1ccc(NC(=O)c2ccccc2Br)cc1S(=O)(=O)Nc1ccccc1OC` the Potency was inconclusive: 20 µM [inhibitor, partial curve, poor fit].
In the case of `CCC(=NCc1cc(OC)cc(OC)c1)c1c(O)n(C)c(=O)n(C)c1=O`, the Potency is reported as inconclusive: 16.4 µM [inhibitor, single point].
With `CC(=O)c1cn(Cc2ccccc2C#N)c2ccccc12` the Potency was active: 3.55 µM.
For `COCCNC(=O)C(=O)NCC1OCCN1S(=O)(=O)c1cc(F)ccc1F` (stereo not drawn), the “activity change, negative = inhibition” value was inactive: 23.1% [at 46.1 µM].
In the case of `COc1ccc(OCC(=O)N/N=C2\CCCCc3ccccc32)cc1`, the Potency is reported as inconclusive: 11.2 µM [inhibitor, partial curve, poor fit].
In the case of `CCOC(=O)C1=C(CS(=O)(=O)c2ccccc2)NC(=O)NC1c1cccc(OC)c1` (stereo not drawn), the Potency is reported as inconclusive: 35.5 µM [inhibitor, single point].
With `Nc1cccc(-n2nnnc2CN2CCOCC2)c1` the “activity change, negative = inhibition” value was inactive: 3.47%.
With `CC(C)c1cc(C(=O)Nc2cc(Cl)ccc2O)no1` the Potency was inconclusive: 1.03 µM [activator, full curve, poor fit].
In the case of `N#C/C(=C\N1CCOCC1)C(N)=O`, the Potency is reported as inconclusive: 7.94 µM [activator, partial curve].
For `COc1ccc2c(c1)CCc1c(C(=O)NCCc3ccc(OC)c(OC)c3)noc1-2`, the “activity change, negative = inhibition” value was inactive: -13.1%.
In the case of `CCOC(=O)/C(C#N)=C/C=C1/C=CC=CN1C`, the “activity change, negative = inhibition” value is reported as inactive: 0.334% [at 46.1 µM].
In the case of `Cc1ccc(CCNC(=O)C2CCCN(C(=O)c3cc4sccc4n3C)C2)cc1` (stereo not drawn), the Potency is reported as inconclusive: 25.9 µM [inhibitor, partial curve, poor fit].
